Results from the supplement of paper PMC12823440, “Inhibitors supercharge kinase turnover through native proteolytic circuits” (Nature, 2025).
Counter-ions that a name gives are not always drawn. This is one part of the list. The calls rarely recur for the same compound in another form.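 In K562 cells expressing nanoluciferase-fused kinases, luminescence was recorded at 4 h intervals between 2 and 18 h, normalized as percent of control with DMSO at 100% and a positive control at 0%. A significant (2 sigma) signal drop marks a time point as decreased. The authors' rule for a hit is not shown and takes in more than the number of time points.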

Chains of the proteins cited; added tags and fusions are not shown. Lines headed by an entry give the natural chain unless they say otherwise; changes in a name come on top.
UniProt P00519, whole entry: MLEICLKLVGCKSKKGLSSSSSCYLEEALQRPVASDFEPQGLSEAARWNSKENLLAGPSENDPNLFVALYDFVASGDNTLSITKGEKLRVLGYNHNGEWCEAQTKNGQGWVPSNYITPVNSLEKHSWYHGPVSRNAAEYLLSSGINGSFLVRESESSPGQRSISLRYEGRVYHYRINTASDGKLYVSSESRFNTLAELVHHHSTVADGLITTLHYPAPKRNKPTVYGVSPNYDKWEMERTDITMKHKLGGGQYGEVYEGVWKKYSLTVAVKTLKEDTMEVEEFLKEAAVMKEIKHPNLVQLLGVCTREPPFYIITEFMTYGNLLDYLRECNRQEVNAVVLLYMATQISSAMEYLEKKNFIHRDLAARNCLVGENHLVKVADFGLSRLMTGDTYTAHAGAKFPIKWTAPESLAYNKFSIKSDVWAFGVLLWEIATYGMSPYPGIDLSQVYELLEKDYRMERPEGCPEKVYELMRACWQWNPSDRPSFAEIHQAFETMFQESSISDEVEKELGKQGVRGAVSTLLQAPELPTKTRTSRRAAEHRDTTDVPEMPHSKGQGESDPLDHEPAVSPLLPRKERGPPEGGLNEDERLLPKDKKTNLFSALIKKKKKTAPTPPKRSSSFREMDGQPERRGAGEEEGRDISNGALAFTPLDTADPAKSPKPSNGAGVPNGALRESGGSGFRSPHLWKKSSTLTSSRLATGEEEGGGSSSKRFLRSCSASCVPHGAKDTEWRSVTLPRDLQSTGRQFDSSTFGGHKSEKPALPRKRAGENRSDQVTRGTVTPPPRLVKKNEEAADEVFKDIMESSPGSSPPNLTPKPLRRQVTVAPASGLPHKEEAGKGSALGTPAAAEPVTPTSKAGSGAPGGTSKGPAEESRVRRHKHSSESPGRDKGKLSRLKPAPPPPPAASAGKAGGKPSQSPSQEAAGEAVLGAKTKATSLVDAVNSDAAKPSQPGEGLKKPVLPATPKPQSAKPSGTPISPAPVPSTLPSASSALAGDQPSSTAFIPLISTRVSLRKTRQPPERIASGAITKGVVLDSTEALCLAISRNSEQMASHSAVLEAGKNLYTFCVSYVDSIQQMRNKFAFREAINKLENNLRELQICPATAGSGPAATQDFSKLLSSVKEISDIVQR
UniProt P31749: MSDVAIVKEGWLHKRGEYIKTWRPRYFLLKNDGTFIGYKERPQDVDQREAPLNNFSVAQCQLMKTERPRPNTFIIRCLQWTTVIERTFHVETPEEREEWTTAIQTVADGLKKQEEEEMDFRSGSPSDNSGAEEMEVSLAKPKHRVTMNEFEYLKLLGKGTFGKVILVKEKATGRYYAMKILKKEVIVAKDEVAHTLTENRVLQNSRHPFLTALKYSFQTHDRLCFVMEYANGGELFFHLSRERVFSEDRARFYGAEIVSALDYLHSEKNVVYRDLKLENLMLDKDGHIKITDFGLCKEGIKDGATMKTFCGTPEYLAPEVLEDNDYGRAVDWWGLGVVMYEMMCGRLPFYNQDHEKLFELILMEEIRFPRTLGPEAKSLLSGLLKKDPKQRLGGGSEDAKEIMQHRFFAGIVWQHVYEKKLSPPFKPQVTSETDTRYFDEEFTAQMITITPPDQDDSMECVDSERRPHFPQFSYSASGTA
UniProt Q9UM73: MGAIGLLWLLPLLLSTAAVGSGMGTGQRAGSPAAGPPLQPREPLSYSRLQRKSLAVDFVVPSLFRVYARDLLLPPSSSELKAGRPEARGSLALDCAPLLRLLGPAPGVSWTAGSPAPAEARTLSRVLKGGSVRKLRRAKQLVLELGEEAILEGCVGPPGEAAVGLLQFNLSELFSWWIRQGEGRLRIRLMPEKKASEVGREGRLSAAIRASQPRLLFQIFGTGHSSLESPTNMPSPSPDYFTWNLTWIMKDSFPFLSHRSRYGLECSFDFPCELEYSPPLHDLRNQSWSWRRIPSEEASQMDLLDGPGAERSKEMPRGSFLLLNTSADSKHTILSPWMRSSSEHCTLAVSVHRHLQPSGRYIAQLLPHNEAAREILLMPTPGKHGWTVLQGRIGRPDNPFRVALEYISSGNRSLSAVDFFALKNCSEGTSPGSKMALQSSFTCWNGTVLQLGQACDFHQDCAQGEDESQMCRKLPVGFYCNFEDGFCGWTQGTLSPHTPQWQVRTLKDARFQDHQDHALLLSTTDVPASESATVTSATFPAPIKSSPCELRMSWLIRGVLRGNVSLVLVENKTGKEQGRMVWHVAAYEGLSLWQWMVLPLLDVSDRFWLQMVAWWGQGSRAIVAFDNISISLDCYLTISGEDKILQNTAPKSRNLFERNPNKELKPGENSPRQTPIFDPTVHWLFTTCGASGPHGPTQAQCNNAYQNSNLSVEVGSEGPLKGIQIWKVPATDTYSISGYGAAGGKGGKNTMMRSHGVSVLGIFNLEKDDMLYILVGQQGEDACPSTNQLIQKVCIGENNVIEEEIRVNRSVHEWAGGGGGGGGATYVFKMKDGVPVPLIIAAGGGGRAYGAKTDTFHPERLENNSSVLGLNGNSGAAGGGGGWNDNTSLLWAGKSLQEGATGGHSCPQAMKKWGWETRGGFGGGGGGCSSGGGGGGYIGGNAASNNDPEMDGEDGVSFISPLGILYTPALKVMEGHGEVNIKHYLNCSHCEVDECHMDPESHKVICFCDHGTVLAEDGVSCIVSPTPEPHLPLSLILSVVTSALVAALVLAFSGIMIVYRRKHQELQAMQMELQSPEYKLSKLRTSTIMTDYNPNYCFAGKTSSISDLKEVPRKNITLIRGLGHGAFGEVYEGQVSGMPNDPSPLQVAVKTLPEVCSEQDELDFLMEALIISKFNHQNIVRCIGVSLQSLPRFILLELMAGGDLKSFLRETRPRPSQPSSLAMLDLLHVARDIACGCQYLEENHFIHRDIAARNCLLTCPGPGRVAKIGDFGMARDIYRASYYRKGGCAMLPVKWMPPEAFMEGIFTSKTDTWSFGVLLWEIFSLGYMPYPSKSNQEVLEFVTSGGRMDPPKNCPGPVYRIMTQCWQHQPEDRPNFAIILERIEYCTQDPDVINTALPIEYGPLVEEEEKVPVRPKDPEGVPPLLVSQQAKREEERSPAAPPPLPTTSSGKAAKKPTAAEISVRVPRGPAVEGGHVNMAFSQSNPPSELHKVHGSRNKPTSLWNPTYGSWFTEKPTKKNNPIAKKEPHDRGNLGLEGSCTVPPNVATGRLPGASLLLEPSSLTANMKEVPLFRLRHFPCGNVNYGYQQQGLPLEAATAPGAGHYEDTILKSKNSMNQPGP
UniProt P10398: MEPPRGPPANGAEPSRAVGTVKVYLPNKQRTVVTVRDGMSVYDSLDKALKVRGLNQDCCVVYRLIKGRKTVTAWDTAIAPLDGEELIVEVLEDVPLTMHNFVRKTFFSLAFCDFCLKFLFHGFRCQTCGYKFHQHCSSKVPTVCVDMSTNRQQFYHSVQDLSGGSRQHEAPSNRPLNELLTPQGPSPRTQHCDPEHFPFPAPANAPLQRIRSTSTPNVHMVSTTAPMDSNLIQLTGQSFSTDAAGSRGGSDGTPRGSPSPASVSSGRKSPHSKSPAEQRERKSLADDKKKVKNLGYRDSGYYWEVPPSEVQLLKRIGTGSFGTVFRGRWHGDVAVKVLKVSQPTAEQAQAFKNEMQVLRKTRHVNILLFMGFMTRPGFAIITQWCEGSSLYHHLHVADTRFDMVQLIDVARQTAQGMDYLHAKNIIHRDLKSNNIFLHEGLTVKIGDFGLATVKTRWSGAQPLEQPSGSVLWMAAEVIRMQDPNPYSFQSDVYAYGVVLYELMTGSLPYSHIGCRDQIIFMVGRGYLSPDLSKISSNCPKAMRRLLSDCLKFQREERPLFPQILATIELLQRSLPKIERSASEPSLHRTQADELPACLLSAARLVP
UniProt O14965: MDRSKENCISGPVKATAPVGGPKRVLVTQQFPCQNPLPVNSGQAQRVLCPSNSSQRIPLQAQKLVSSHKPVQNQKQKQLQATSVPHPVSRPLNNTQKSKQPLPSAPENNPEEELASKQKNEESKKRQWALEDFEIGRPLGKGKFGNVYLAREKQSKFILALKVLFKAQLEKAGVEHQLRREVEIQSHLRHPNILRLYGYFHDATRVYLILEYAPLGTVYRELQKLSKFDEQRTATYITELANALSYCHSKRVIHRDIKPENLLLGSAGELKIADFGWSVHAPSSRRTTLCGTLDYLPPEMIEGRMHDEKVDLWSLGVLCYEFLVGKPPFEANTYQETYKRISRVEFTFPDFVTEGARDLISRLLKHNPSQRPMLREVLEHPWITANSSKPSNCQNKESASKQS
UniProt Q96GD4, whole entry: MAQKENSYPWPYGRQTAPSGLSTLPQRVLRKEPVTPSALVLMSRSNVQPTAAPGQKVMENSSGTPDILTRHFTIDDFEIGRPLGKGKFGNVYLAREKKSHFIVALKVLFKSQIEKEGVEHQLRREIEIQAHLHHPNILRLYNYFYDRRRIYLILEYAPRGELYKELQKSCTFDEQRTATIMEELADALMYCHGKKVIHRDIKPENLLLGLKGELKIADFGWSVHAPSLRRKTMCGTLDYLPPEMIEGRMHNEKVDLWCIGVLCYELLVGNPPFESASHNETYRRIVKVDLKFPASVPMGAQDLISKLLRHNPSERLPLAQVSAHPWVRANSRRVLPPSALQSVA
UniProt Q9UQB9: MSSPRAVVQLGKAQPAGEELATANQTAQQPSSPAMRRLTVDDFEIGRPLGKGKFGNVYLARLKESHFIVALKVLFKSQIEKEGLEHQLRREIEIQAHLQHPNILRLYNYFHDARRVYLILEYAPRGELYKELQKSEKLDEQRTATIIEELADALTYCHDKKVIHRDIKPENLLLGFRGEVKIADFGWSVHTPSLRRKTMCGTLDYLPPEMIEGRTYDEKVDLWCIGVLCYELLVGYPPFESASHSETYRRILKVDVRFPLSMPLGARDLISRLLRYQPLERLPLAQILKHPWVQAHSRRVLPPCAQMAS
UniProt P51813: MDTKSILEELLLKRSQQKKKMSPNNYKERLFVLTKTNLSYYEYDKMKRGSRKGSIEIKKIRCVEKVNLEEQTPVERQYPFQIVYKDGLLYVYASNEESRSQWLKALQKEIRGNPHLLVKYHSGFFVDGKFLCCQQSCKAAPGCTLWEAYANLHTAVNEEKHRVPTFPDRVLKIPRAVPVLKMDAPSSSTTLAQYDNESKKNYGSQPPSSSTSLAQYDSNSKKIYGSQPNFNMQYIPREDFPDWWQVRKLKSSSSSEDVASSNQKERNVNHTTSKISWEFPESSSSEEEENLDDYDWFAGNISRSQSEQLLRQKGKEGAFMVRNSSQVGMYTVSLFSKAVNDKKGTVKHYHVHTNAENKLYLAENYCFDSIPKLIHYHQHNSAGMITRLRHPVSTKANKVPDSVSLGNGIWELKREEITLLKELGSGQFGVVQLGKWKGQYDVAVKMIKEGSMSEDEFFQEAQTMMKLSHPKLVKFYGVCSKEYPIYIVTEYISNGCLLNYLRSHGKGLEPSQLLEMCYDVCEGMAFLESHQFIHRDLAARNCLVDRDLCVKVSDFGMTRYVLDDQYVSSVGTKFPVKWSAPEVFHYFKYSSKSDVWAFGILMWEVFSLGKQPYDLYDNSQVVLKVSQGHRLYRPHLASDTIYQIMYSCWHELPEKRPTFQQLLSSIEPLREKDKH
UniProt P15056, whole entry, looked up: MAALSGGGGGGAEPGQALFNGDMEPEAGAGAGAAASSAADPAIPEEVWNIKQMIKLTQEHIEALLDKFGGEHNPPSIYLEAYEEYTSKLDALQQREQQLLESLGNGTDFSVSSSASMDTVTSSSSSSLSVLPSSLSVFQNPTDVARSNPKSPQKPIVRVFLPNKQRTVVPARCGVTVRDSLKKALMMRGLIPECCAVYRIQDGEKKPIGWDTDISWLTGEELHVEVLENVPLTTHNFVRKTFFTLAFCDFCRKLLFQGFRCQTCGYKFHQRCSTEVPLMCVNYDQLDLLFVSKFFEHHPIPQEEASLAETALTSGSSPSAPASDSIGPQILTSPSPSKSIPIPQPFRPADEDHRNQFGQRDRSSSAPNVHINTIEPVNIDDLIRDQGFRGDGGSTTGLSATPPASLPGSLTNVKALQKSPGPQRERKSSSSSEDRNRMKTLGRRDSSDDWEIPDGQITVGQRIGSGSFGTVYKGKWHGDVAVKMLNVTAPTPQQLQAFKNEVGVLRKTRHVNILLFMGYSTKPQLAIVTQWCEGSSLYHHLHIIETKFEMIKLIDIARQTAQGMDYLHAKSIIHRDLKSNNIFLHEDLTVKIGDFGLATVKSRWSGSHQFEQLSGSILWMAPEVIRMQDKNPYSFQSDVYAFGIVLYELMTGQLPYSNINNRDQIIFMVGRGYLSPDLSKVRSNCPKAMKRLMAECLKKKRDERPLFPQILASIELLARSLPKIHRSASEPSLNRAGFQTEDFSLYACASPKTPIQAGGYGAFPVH

How the values were obtained:
Assay in all cases: kinase-Nluc reporter destabilization hit call (1 = scored as downregulated) (binary); higher = compound decreases kinase abundance
Settings in all cases: K562; 2-18 h
ABL1 = ABL1 (UniProt P00519)
AKT1 = AKT1 (UniProt P31749)
ALK = ALK (UniProt Q9UM73)
ARAF = ARAF (UniProt P10398)
AURKA = AURKA (UniProt O14965)
AURKB = AURKB (UniProt Q96GD4)
AURKC = AURKC (UniProt Q9UQB9)
BLK = BLK (UniProt P51451)
BMX = BMX (UniProt P51813)
BRAF = BRAF (UniProt P15056)

Measured: kinase-Nluc reporter destabilization hit call

COc1ccc2c(c[n+](C)c3c4cc5c(cc4ccc23)OCO5)c1OC [Chelerythrine (chloride)] (10 µM)
inactive: ABL1 = 0 | AKT1 = 0 | ALK 0 | ARAF 0 | AURKA 0 | AURKB 0 | AURKC 0 | BLK 0 | BMX 0 | BRAF 0

C[C@H]1CC[C@]2(NC1)O[C@H]1C[C@H]3[C@@H]4CC[C@H]5C[C@@H](O)CC[C@]5(C)[C@H]4CC[C@]3(C)[C@H]1[C@@H]2C [Tomatidine (hydrochloride)] (10 µM)
inactive: ABL1 = 0 | AKT1 = 0 | ALK 0 | ARAF 0 | AURKA 0 | AURKB 0 | AURKC 0 | BLK 0 | BMX 0 | BRAF 0

COc1ccc2c(c1OC)C(OC)N(C)c1c-2ccc2cc3c(cc12)OCO3 (stereo not given) [Angoline] (10 µM)
inactive: ABL1 = 0 | AKT1 = 0 | ALK 0 | ARAF 0 | AURKA 0 | AURKB 0 | AURKC 0 | BLK 0 | BMX 0 | BRAF 0

O=C1c2ccccc2C(=O)c2c1cccc2-c1cnn(C2CCNCC2)c1 [PDK4-IN-1 (hydrochloride)] (10 µM)
inactive: ABL1 = 0 | AKT1 = 0 | ALK 0 | ARAF 0 | AURKA 0 | AURKB 0 | AURKC 0 | BLK 0 | BMX 0 | BRAF 0

O=C1C=CC[C@@H]2[C@H]3CCCN4CCC[C@@H](CN12)[C@@H]34 [Sophocarpine] (10 µM)
inactive: ABL1 = 0 | AKT1 = 0 | ALK 0 | ARAF 0 | AURKA 0 | AURKB 0 | AURKC 0 | BLK 0 | BMX 0 | BRAF 0

CC(=O)OC(C)(C)/C=C/C(=O)[C@](C)(O)[C@H]1[C@H](O)C[C@@]2(C)[C@@H]3CC=C4[C@@H](C=C(O)C(=O)C4(C)C)[C@]3(C)C(=O)C[C@]12C [Cucurbitacin E] (2.5 µM)
inactive: AKT1 = 0 | ALK 0 | ARAF 0 | AURKA 0 | AURKB 0 | AURKC 0 | BLK 0 | BMX 0 | BRAF 0
active: ABL1 = 1

O=C1C=CC[C@@H]2[C@H]3CCCN4CCC[C@@H](CN12)[C@@H]34 [Sophocarpine (monohydrate)] (2.5 µM)
inactive: ABL1 = 0 | AKT1 = 0 | ALK 0 | ARAF 0 | AURKA 0 | AURKB 0 | AURKC 0 | BLK 0 | BMX 0 | BRAF 0

COc1ccc(N(C(=O)Oc2c(C)cccc2C)c2ccnc(Nc3ccc(N4CCN(C)CC4)cc3)n2)c(OC)c1 (2.5 µM)
inactive: ABL1 = 0 | AKT1 = 0 | ALK 0 | ARAF 0 | AURKA 0 | AURKB 0 | AURKC 0 | BLK 0 | BMX 0 | BRAF 0

CC(=O)O[C@H]1[C@H]2[C@@H](OC(=O)Cc3ccccc3)[C@@H](C)C[C@]2(OC(C)=O)C(=O)/C(C)=C/[C@@H]2[C@H](CC[C@@]13CO3)C2(C)C [Euphorbiasteroid] (10 µM)
inactive: ABL1 = 0 | AKT1 = 0 | ALK 0 | ARAF 0 | AURKA 0 | AURKB 0 | AURKC 0 | BLK 0 | BMX 0 | BRAF 0

CC1C(=O)OC2C(O)C34C5OC(=O)C3(OC3OC(=O)C(O)C34C(C(C)(C)C)C5O)C12O (stereo not given) [Ginkgolide C] (10 µM)
inactive: ABL1 = 0 | AKT1 = 0 | ALK 0 | ARAF 0 | AURKA 0 | AURKB 0 | AURKC 0 | BLK 0 | BMX 0 | BRAF 0

COc1ccc(/C=C/c2cc(OC)c(OC)c(OC)c2)cc1 (2.5 µM)
inactive: ABL1 = 0 | AKT1 = 0 | ALK 0 | ARAF 0 | AURKA 0 | AURKB 0 | AURKC 0 | BLK 0 | BMX 0 | BRAF 0

C[C@H]1CC[C@]2(NC1)O[C@H]1C[C@H]3[C@@H]4CC[C@H]5C[C@@H](O[C@@H]6O[C@H](CO)[C@H](O[C@@H]7O[C@H](CO)[C@@H](O)[C@H](O[C@@H]8OC[C@@H](O)[C@H](O)[C@H]8O)[C@H]7O[C@@H]7O[C@H](CO)[C@@H](O)[C@H](O)[C@H]7O)[C@H](O)[C@H]6O)CC[C@]5(C)[C@H]4CC[C@]3(C)[C@H]1[C@@H]2C [Tomatine] (2.5 µM)
active: ALK 1 | AURKB 1
inactive: ABL1 = 0 | AKT1 = 0 | ARAF 0 | AURKA 0 | AURKC 0 | BLK 0 | BMX 0 | BRAF 0

COc1ccc2c(c1)/C(=C/c1cnc[nH]1)C(=O)N2 (2.5 µM)
inactive: ABL1 = 0 | AKT1 = 0 | ALK 0 | ARAF 0 | AURKA 0 | AURKB 0 | AURKC 0 | BLK 0 | BMX 0 | BRAF 0

CC(=O)c1c(O)c(C)c(O)c(Cc2c(O)c3c(c(C(=O)/C=C/c4ccccc4)c2O)OC(C)(C)C=C3)c1O [Rottlerin] (2 µM)
inactive: ABL1 = 0 | AKT1 = 0 | ALK 0 | ARAF 0 | AURKA 0 | AURKB 0 | AURKC 0 | BLK 0 | BMX 0 | BRAF 0

NCCc1cn(S(=O)(=O)c2c(Cl)nc3sccn23)c2ccccc12 (10 µM)
inactive: ABL1 = 0 | AKT1 = 0 | ALK 0 | ARAF 0 | AURKA 0 | AURKB 0 | AURKC 0 | BLK 0 | BMX 0 | BRAF 0

O=C(/C=C/c1ccccc1)OC[C@H]1O[C@@H](O[C@@H]2OC=C[C@H]3[C@H](O)[C@@H]4O[C@]4(CO)[C@@H]23)[C@H](O)[C@@H](O)[C@@H]1O [Picroside I] (10 µM)
inactive: ABL1 = 0 | AKT1 = 0 | ALK 0 | ARAF 0 | AURKA 0 | AURKB 0 | AURKC 0 | BLK 0 | BMX 0 | BRAF 0

C/C=C(/C)C(=O)O[C@H]1[C@@H]2[C@H](C)C(=O)O[C@@H]2C[C@@H](C)[C@@H]2C=CC(=O)[C@]21C [Brevilin A] (2.5 µM)
inactive: ABL1 = 0 | AKT1 = 0 | ALK 0 | ARAF 0 | AURKA 0 | AURKB 0 | AURKC 0 | BLK 0 | BMX 0 | BRAF 0

COc1cc2c(cc1F)C(c1ccccc1Cl)=Nc1c(n[nH]c1C)N2 (0.5 µM)
inactive: ABL1 = 0 | AKT1 = 0 | ALK 0 | ARAF 0 | AURKA 0 | AURKB 0 | AURKC 0 | BLK 0 | BMX 0 | BRAF 0

CCN1CCN(C(=O)Cc2ccc(Nc3ncc(F)c(Nc4ccc(C(=O)Nc5ccccc5Cl)cc4)n3)cc2)CC1 (2.5 µM)
inactive: ABL1 = 0 | AKT1 = 0 | ALK 0 | ARAF 0 | AURKA 0 | AURKB 0 | AURKC 0 | BLK 0 | BMX 0 | BRAF 0

O=C(O)c1nn(Cc2ccc(Cl)cc2Cl)c2ccccc12 [Lonidamine] (10 µM)
inactive: ABL1 = 0 | AKT1 = 0 | ALK 0 | ARAF 0 | AURKA 0 | AURKB 0 | AURKC 0 | BLK 0 | BMX 0 | BRAF 0

O=Cc1cn(Cc2ccc(Cl)cc2)c2ccccc12 [Oncrasin-1] (10 µM)
inactive: ABL1 = 0 | AKT1 = 0 | ALK 0 | ARAF 0 | AURKA 0 | AURKB 0 | AURKC 0 | BLK 0 | BMX 0 | BRAF 0

Cc1ccccc1-n1c(Cn2cnc3c(N)ncnc32)nc2cccc(C)c2c1=O (10 µM)
inactive: ABL1 = 0 | AKT1 = 0 | ALK 0 | ARAF 0 | AURKA 0 | AURKB 0 | AURKC 0 | BLK 0 | BMX 0 | BRAF 0

Taken from the results shown (2 entries):
CCN1CCN(C(=O)Cc2ccc(Nc3ncc(F)c(Nc4ccc(C(=O)Nc5ccccc5Cl)cc4)n3)cc2)CC1 (2.5 µM)
inactive: ABL1 = 0 | AKT1 = 0 | ALK 0 | ARAF 0 | AURKA 0 | AURKB 0 | AURKC 0 | BLK 0 | BMX 0 | BRAF 0

O=C(O)c1nn(Cc2ccc(Cl)cc2Cl)c2ccccc12 [Lonidamine] (10 µM)
inactive: ABL1 = 0 | AKT1 = 0 | ALK 0 | ARAF 0 | AURKA 0 | AURKB 0 | AURKC 0 | BLK 0 | BMX 0 | BRAF 0

Next part.

C=CC(=O)Nc1ccc2[nH]c(=O)n(C3CCN(Cc4ccc(-c5nc6cc[nH]c(=O)c6cc5-c5ccccc5)cc4)CC3)c2c1 [Borussertib] (10 µM)
inactive: ABL1 = 0 | AKT1 = 0 | ALK 0 | ARAF 0 | AURKA 0 | AURKB 0 | AURKC 0 | BLK 0 | BMX 0 | BRAF 0

C[C@H](Nc1ncnc2[nH]cnc12)c1nc2ccc(F)cc2c(=O)n1-c1ccccc1 [Acalisib] (10 µM)
inactive: ABL1 = 0 | AKT1 = 0 | ALK 0 | ARAF 0 | AURKA 0 | AURKB 0 | AURKC 0 | BLK 0 | BMX 0 | BRAF 0

O=c1ccc2cc(O[C@@H]3O[C@H](CO)[C@@H](O)[C@H](O)[C@H]3O)c(O)cc2o1 [Esculin] (10 µM)
inactive: ABL1 = 0 | AKT1 = 0 | ALK 0 | ARAF 0 | AURKA 0 | AURKB 0 | AURKC 0 | BLK 0 | BMX 0 | BRAF 0

N#CC(C#N)=NNc1cccc(Cl)c1 (2.5 µM)
inactive: ABL1 = 0 | AKT1 = 0 | ALK 0 | ARAF 0 | AURKA 0 | AURKB 0 | AURKC 0 | BLK 0 | BMX 0 | BRAF 0

O=c1cc(O)c2ccccc2o1 [4-Hydroxycoumarin] (10 µM)
inactive: ABL1 = 0 | AKT1 = 0 | ALK 0 | ARAF 0 | AURKA 0 | AURKB 0 | AURKC 0 | BLK 0 | BMX 0 | BRAF 0

CCCCNc1nc(N)c2[nH]c(=O)n(Cc3ccc(C)nc3)c2n1 (10 µM)
inactive: ABL1 = 0 | AKT1 = 0 | ALK 0 | ARAF 0 | AURKA 0 | AURKB 0 | AURKC 0 | BLK 0 | BMX 0 | BRAF 0

CC(C)(C)c1cc(C=C(C#N)C#N)cc(Br)c1O (2.5 µM)
inactive: ABL1 = 0 | AKT1 = 0 | ALK 0 | ARAF 0 | AURKA 0 | AURKB 0 | AURKC 0 | BLK 0 | BMX 0 | BRAF 0
